PubChem BioAssay AID504444 (National Center for Advancing Translational Sciences (NCATS), 2011)
Among all 360,000 compounds or so, about 7,500 (2.1%) were called active. The shares of active, inactive and inconclusive entries below differ from those in the screen. The call rests on the fitted dose curve; in most records, active means well fitted inhibition curve with a large enough effect; inconclusive means small, poorly fitted or top-dose-only effect, or effect the other way; inactive means flat fitted curve, though single readings scatter. Potencies of inconclusive entries are doubtful fits and often do not repeat.

assay: Nrf2 qHTS screen for inhibitors; conditions: A549 ARE-Fluc reporter, luciferase luminescence, 18-24 h; series mostly up to 46 µM; further: nearly all actives have a fitted effect of over 60% in size
Summary of the method: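 Nrf2 function is reported as luminescence of an ARE-controlled luciferase in A549 cells. Compounds were tested at several concentrations, and a CellTiter-Fluor read on the same wells flagged cytotoxicity.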
Potency means the concentration at half of the fitted maximal effect.

SMILES | Potency
CCOc1ccc(NS(=O)(=O)c2ccc(NC(=O)c3ccccc3C(=O)O)cc2)cc1 | inactive
Cc1ccc(C(=O)OC(C)C(=O)Nc2ccc(S(N)(=O)=O)cc2)cc1S(=O)(=O)N1CCOCC1 (centres undefined) | inconclusive: 18.4 µM [activator, partial curve, poor fit]
COc1ccccc1C(=O)NCCC(=O)N1CCN(C(C)=O)CC1 | inconclusive: 6.51 µM [falling, single point]
Oc1ccc(C[C@@H]2CNC(=S)N2CCc2cc(C(F)(F)F)cc(C(F)(F)F)c2)cc1 | inconclusive: 7.31 µM [falling, partial curve]
CCOc1cc(NCc2ccccc2)c2ncn(C(C)C)c2c1 | inconclusive: 5.8 µM [falling, partial curve, poor fit]
C/C(=N/Nc1nc(-c2ccc(Cl)cc2)cs1)c1cccs1 | inconclusive: 29.1 µM [activator, single point]
Cc1ccc(C(=O)N(CC(=O)NC2CCCC2)c2ccc(F)cc2)s1 | inconclusive: 0.116 µM [activator, full curve, poor fit]
COc1cccc(-c2cc(C(F)(F)F)n3nc(N)nc3n2)c1 | inconclusive: 0.0052 µM [activator, full curve, poor fit]
COc1cc(/C=N/O)ccc1OCc1ccccc1Cl | inconclusive: 0.517 µM [activator, partial curve, poor fit]
Cc1[nH]n(-c2ccccc2)c(=O)c1C(C[N+](=O)[O-])c1ccc(Br)cc1 (centres undefined) | inconclusive: 14.6 µM [falling, single point]
COc1cccc(Nc2nn3c(=O)c4ccccc4nc3s2)c1 | inconclusive: 23.1 µM [activator, single point]
Cc1cccc(C(=O)NCCNC(=O)c2cccc(C)c2)c1 | inconclusive: 20.6 µM [falling, partial curve, poor fit]
C/C(=N/NC(=O)c1ccccn1)c1ccncc1 | inconclusive: 4.61 µM [activator, partial curve]
CCOc1ccc(NC(=O)CCS(=O)(=O)c2cccc3nsnc23)cc1 | inconclusive: 0.164 µM [falling, full curve, poor fit]
Cc1cc(S(=O)(=O)Nc2ccc(N(C)C)cc2)c(C)s1 | inconclusive: 6.51 µM [falling, partial curve, poor fit]
O=C(CC1CCS(=O)(=O)C1)Nc1ccc[nH]c1=O (centres undefined) | inconclusive: 23.1 µM [activator, single point]
CSc1ccc(S(=O)(=O)Nc2ccc(F)cc2)cc1 | inconclusive: 18.4 µM [falling, partial curve, poor fit]
O=C(CSc1ccc(Cl)cc1)Nc1cccc(-c2nc3ncccc3o2)c1 | inconclusive: 18.4 µM [falling, partial curve, poor fit]
COc1ccc(C(=O)Nc2ccccc2C(=O)Nc2cc(C)ccn2)cc1 | inconclusive: 0.517 µM [activator, full curve, poor fit]
O=C(Nc1cccc(C(F)(F)F)c1)C1CCN(S(=O)(=O)c2cccc3nsnc23)CC1 | active: 20.6 µM
N#Cc1ccc(C(=O)NC(=S)N2CCN(C=O)CC2)cc1 | inactive
O=C(Nc1ccc2c(c1)CCC2)c1ccccc1F | inconclusive: 2.31 µM [activator, full curve]

3 neighbouring entries out of the list so far, quoted:
SMILES | Potency
CCOc1cc(NCc2ccccc2)c2ncn(C(C)C)c2c1 | inconclusive: 5.8 µM [falling, partial curve, poor fit]
C/C(=N/Nc1nc(-c2ccc(Cl)cc2)cs1)c1cccs1 | inconclusive: 29.1 µM [activator, single point]
Cc1ccc(C(=O)N(CC(=O)NC2CCCC2)c2ccc(F)cc2)s1 | inconclusive: 0.116 µM [activator, full curve, poor fit]

(further entries)

SMILES | Potency
CCOC(=O)CC(=O)CSc1nc(-c2ccccc2)cc(-c2ccc(Cl)cc2)c1C#N | inconclusive: 25.9 µM [falling, single point]
N#Cc1cc2ccccc2nc1N | inactive
CCC(CO)Oc1cc(NCc2cccc(F)c2)c2ncn(C(C)C)c2c1 (centres undefined) | inconclusive: 25.9 µM [falling, partial curve, poor fit]
COc1ccc(C(CNc2ccc(S(C)(=O)=O)cc2[N+](=O)[O-])N(C)C)cc1OC (centres undefined) | inconclusive: 29.1 µM [activator, single point]
Cc1ccc(NC(=O)CCCN2C(=O)COc3ccc(C)cc32)c(Cl)c1 | inconclusive: 16.4 µM [activator, partial curve, poor fit]
Cn1c(N2CCOCC2)c(/C=N/O)c2ccccc21 | inconclusive: 2.59 µM [activator, single point]
COc1cccc(-c2cc(C(F)(F)F)nc(N3CCOCC3)n2)c1 | inconclusive: 0.116 µM [falling, full curve, poor fit]
COc1cccc(/C=C/c2nc(C#N)c(N3CCCCCC3)o2)c1 | inactive
Nc1nc(SCc2ccc(F)cc2)ns1 | inconclusive: 18.4 µM [activator, single point]
Cc1ccc(-n2nc3ccc(NC(=O)c4cccc([N+](=O)[O-])c4C)cc3n2)cc1 | inconclusive: 4.61 µM [falling, single point]
CCC(C)NC(=O)c1c(N)n(/N=C/c2cccnc2)c2nc3ccccc3nc12 (centres undefined) | inconclusive: 23.1 µM [falling, partial curve, poor fit]
CCOc1ccc(CCNC(=O)CSc2cc(=O)n(CC)c3ccccc23)cc1OCC | inactive
COc1ccc(C2/C=C\CN(C(=O)Nc3ccc(C(F)(F)F)cc3)CC(=O)N2Cc2ccc(F)cc2)cc1 (centres undefined) | active: 23.1 µM
Cc1cnc(C(=O)N2CCCC(C(=O)c3ccc(C(F)(F)F)cc3)C2)cn1 (centres undefined) | inconclusive: 9.2 µM [activator, single point]
O=c1[nH]c2ccccc2nc1C(F)(F)C(F)F | inconclusive: 1.84 µM [falling, full curve, poor fit]
Cc1cc(C)c(O)c(-c2n[nH]c3c2C(c2cccc(O)c2)N(Cc2ccco2)C3=O)c1 (centres undefined) | inactive
CCC1(C)Cc2c(sc3nnn(CC(=O)Nc4ccc(C)cc4)c(=O)c23)CO1 (centres undefined) | inconclusive: 18.4 µM [falling, partial curve, poor fit]
O=C(Nc1cccnc1)c1ccc([N+](=O)[O-])o1 | inconclusive: 18.4 µM [activator, partial curve, poor fit]
COc1ccc(NC(=O)COc2cccc3c2OC(C)(C)C3)cc1OC | active: 18.4 µM
CCc1ccc(N2CC(c3nc4ccccc4n3Cc3ccccc3C)CC2=O)cc1 (centres undefined) | active: 14.6 µM
O=C(CCCCCn1c(=O)[nH]c2ccsc2c1=O)NCc1ccc(F)cc1 | inconclusive: 6.51 µM [activator, partial curve, poor fit]
Cc1cc(=O)n(-c2ccc3ccccc3n2)[nH]1 | inconclusive: 0.13 µM [falling, full curve]

SMILES | Potency
Cc1sc2ncn3ncnc3c2c1C | inconclusive: 29.1 µM [falling, single point]
COc1cc(C2NC(=O)NC(C)=C2C(=O)OCc2ccccc2)ccc1O (centres undefined) | inconclusive: 18.4 µM [activator, single point]
CC12CCC(=O)N1C(C(=O)Nc1nnc(SCc3ccccc3F)s1)CS2 (centres undefined) | inconclusive: 32.6 µM [activator, single point]
COC(=O)Cc1c(C)c2ccc3c(c2oc1=O)CN(Cc1ccc(C)cc1)CO3 | inactive
Cc1ccc(NC(=O)CCCc2ccccc2)nc1 | inconclusive: 18.4 µM [activator, single point]
COc1cccc(C(C(=O)NC2CCCCC2)N(C(=O)Cc2cccs2)c2ccc(-n3cnnn3)c(OC)c2)c1 (centres undefined) | inconclusive: 23.1 µM [falling, single point]
O=C(NNc1c2ccccc2nc2ccccc12)c1ccc(Cl)cc1 | inconclusive: 0.92 µM [activator, partial curve, poor fit]
O=C(Nc1ccc2sccc2c1)c1cccc(N2C(=O)CCC2=O)c1 | inconclusive: 6.51 µM [activator, full curve]
CCOc1ccc(S(=O)(=O)NCc2ccccn2)cc1NC(=O)c1ccccc1F | inconclusive: 7.31 µM [activator, partial curve]
CCc1ccc(Nc2ncc3c(n2)CC(C)CC3=O)cc1 (centres undefined) | inconclusive: 10.3 µM [activator, partial curve]
C=CCn1c(-c2ccc(S(=O)(=O)N3CCOCC3)cc2)csc1=Nc1ccccc1 | inconclusive: 18.4 µM [falling, partial curve, poor fit]
CCN(CC)c1ccc(NC2=C(Cl)C(=O)c3ccccc3C2=O)cc1 | inconclusive: 4.61 µM [falling, partial curve, poor fit]
C/C(=N\NC(=S)Nc1cccc(C)c1)c1ccco1 | inconclusive: 20.6 µM [activator, partial curve]
CCOc1ccc(CCNC(=O)CCn2c(=O)c3cccn3c3ccc(F)cc32)cc1 | inconclusive: 8.2 µM [activator, partial curve, poor fit]
CCOC(=O)c1ccc(NC(=S)N(CCCN2CCCCC2)Cc2ccco2)cc1 | inactive
CCOC(=O)C1CCN(C(=O)/C=C/c2ccc(OC)cc2)CC1 | inconclusive: 3.98 µM [activator, full curve]
CC1=NN(C(=O)c2ccc(Cn3nc(C)c([N+](=O)[O-])c3C)cc2)C(O)(C(F)(F)F)C1 (centres undefined) | inconclusive: 25.9 µM [falling, partial curve, poor fit]
CC(=O)Nc1cccc(-c2nnc(SCC(=O)c3ccc([N+](=O)[O-])cc3)o2)c1 | inconclusive: 4.11 µM [activator, full curve, poor fit]
COc1ccc(-c2c(C#Cc3ccc(N(C)C)cc3)c3ccccc3n2C)cc1 | inconclusive: 20.6 µM [activator, partial curve]
CCNC(=S)N1CCN(S(=O)(=O)c2ccc(C)c(C)c2)CC1 | inconclusive: 29.1 µM [falling, single point]
